{"source": "patent US10178867B2", "about": "“Treating microbe contamination in water with THP salts and polymeric biopenetrants” (priority 2004, dated 2019)", "assay": "Iron sulphide dissolution test"}
{"substance": "tetrakis(hydroxymethyl)phosphonium sulphate [Unformulated THPS]", "values": [{"measurement": "% wt loss", "setting": "2 g iron sulphide field scale, stirred 20 hrs at 50° C.", "result": 63, "unit": "%"}, {"measurement": "Fe^2+ concentration in solution", "setting": "filtered solution after 20 hrs at 50° C., Hach DR2000 spectrophotometer", "result": 3120, "unit": "ppm"}]}
